For at least one compound, name, drawing or mass did not settle the structure.
System: STZ rats
Assay: Efficacy study by subcutaneous administration in the experimental animal model of type 2 diabetes (STZ rats), blood glucose
Assay type: in vivo, Male Wistar rats
Details: for Blood glucose concentration at 0 hour (mM, mean ± sem): 0 hour (start of experiment, time of injection)
Procedure: 1) The Experimental Animal Model of Type 2 Diabetes Male Wistar rats of approximately 200 grams were fasted overnight with free access to water. The rats were administered a single dose of streptozotocin (STZ) by intraperitoneal injection (ip) in an amount of 45 mg/Kg. Then, the rats were normally fed and tested for fasting blood glucose. […] 2) Experimental Method Forty-eight rats were randomly divided into 6 groups, with each of 8 rats. […] At 0 hour, the STZ rats were injected subcutaneously with different doses of drugs for test. At 3, 6, and 9 hours, blood samples were taken from the vein of the rats' tail. The blood samples were tested to provide the blood glucose concentrations of the rats.

CCCCCCCCCCCCCCCC(=O)N[C@@H](CCC(=O)NCCCC[C@H](NC(=O)[C@H](C)NC(=O)[C@H](C)NC(=O)[C@H](CCC(N)=O)NC(=O)CNC(=O)[C@H](CCC(=O)O)NC(=O)[C@H](CC(C)C)NC(=O)[C@H](Cc1ccc(O)cc1)NC(=O)[C@H](CO)NC(=O)[C@H](CO)NC(=O)[C@@H](NC(=O)[C@H](CC(=O)O)NC(=O)[C@H](CO)NC(=O)[C@@H](NC(=O)[C@H](Cc1ccccc1)NC(=O)[C@@H](NC(=O)CNC(=O)[C@H](CCC(=O)O)NC(=O)[C@H](C)NC(=O)[C@@H](N)Cc1cnc[nH]1)[C@@H](C)O)[C@@H](C)O)C(C)C)C(=O)N[C@@H](CCC(=O)O)C(=O)N[C@@H](Cc1ccccc1)C(=O)N[C@H](C(=O)N[C@@H](C)C(=O)N[C@@H](Cc1c[nH]c2ccccc12)C(=O)N[C@@H](CC(C)C)C(=O)N[C@H](C(=O)N[C@@H](CCCNC(=N)N)C(=O)NCC(=O)N[C@@H](CCCNC(=N)N)C(=O)NCC(=O)O)C(C)C)[C@@H](C)CC)C(=O)O [Liraglutide]
Blood glucose concentration at 0 hour (mM, mean ± sem) (1 μg/kg subcutaneous): 24.6 ± 2.6 mM | Blood glucose concentration at 6 hour (mM, mean ± sem) (1 μg/kg subcutaneous): 23.0 ± 2.3 mM | Blood glucose concentration at 9 hour (mM, mean ± sem) (1 μg/kg subcutaneous): 22.4 ± 2.5 mM | Blood glucose concentration at 0 hour (mM, mean ± sem) (10 μg/kg subcutaneous): 23.3 ± 0.8 mM | Blood glucose concentration at 3 hour (mM, mean ± sem) (10 μg/kg subcutaneous, 3 hour): 22.5 ± 0.8 mM | Blood glucose concentration at 6 hour (mM, mean ± sem) (10 μg/kg subcutaneous): 20.8 ± 0.8 mM | Blood glucose concentration at 9 hour (mM, mean ± sem) (10 μg/kg subcutaneous): 19.7 ± 0.6 mM
